From article PMC5024086, “Fine-tuning of amino sugar homeostasis by EIIA^Ntr in Salmonella Typhimurium” (Scientific Reports, 2016)
Results are given in words; binding and its absence hold for the method and conditions named. In cells and extracts the contact can be indirect. Here binding means that the protein was enriched with, or labelled near, the bait; the list need not be complete. Sequences can lack the tags named with a protein.

Target: EIIA^Ntr tagged with His6 at its C-terminus (EIIA^Ntr-His6), unphosphorylated form (Salmonella Typhimurium)
Test: affinity purification with mass spectrometry; ligand fishing: 1 mg EIIA^Ntr-His6 mixed with S. Typhimurium SL1344 cell extract, Ni-NTA resin 1 h at 4 °C, 20 mM Tris-HCl pH 8.0, 300 mM NaCl; eluted with 250 mM imidazole; band from SDS-PAGE identified by LC-MS/MS; only the target purified

B1: GlmS in solution (SEC-MALS) (enzyme, Salmonella Typhimurium, UniProt Q8ZKX1 1-609, looked up)
chain: MCGIVGAIAQRDVAEILLEGLRRLEYRGYDSAGLAVVDAEGHMTRLRRLGKVQMLAQAAEEHPLHGGTGIAHTRWATHGEPSEANAHPHVSEHIVVVHNGIIENHEPLREALKARGYTFVSETDTEVIAHLVNWELKQGGTLREAVLRAIPQLRGAYGTVIMDTRHPDTLLAARSGSPLVIGLGMGENFIASDQLALLPVTRRFIFLEEGDIAEITRRSVNIFDNTGAEVKRQDIESNLQYDAGDKGIYRHYMQKEIYEQPNAIKNTLTGRISHGQVDLSELGPNADELLSKVEHIQILACGTSYNSGMVSRYWFESLAGIPCDVEIASEFRYRKSAVRRNSLMITLSQSGETADTLAGLRLSKELGYLGSLAICNVPGSSLVRESDLALMTNAGTEIGVASTKAFTTQLTVLLMLVAKLSRLKGLDASIEHDIVHGLQALPSRIEQMLSQDKRIELLAEDFSDKHHALFLGRGDQYPIALEGALKLKEISYIHAEAYAAGELKHGPLALIDADMPVIVVAPNNELLEKLKSNIEEVRARGGQLYVFADQDAGFVSNDNMHIIEMPHVEEVIAPIFYTVPLQLLAYHVALIKGTDVDQPRNLAKSVTVE
notes: D-glucosamine-6-phosphate synthase (GlmS), Salmonella Typhimurium; 128 kDa dimer by SEC-MALS; it may be the same as m7; also called GlmS dimer
**Q.** B1 was tested. Which binding did it give?
**A.** binds
